According to the supplement of paper PMC10849652:
Some of the results follow.

Chains of the proteins cited; added tags and fusions are not shown. Lines headed by an entry give the natural chain unless they say otherwise; changes in a name come on top.
UniProt P35813: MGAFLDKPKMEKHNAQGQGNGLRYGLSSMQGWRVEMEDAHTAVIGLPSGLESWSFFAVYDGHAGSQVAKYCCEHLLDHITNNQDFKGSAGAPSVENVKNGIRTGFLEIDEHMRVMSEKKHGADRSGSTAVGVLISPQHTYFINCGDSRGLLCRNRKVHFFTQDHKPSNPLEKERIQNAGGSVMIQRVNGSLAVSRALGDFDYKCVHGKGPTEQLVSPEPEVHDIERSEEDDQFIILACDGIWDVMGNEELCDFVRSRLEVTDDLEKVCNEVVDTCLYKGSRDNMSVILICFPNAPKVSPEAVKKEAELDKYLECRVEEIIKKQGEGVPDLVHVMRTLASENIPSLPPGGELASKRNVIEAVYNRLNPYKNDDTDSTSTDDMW
UniProt Q5MIZ7: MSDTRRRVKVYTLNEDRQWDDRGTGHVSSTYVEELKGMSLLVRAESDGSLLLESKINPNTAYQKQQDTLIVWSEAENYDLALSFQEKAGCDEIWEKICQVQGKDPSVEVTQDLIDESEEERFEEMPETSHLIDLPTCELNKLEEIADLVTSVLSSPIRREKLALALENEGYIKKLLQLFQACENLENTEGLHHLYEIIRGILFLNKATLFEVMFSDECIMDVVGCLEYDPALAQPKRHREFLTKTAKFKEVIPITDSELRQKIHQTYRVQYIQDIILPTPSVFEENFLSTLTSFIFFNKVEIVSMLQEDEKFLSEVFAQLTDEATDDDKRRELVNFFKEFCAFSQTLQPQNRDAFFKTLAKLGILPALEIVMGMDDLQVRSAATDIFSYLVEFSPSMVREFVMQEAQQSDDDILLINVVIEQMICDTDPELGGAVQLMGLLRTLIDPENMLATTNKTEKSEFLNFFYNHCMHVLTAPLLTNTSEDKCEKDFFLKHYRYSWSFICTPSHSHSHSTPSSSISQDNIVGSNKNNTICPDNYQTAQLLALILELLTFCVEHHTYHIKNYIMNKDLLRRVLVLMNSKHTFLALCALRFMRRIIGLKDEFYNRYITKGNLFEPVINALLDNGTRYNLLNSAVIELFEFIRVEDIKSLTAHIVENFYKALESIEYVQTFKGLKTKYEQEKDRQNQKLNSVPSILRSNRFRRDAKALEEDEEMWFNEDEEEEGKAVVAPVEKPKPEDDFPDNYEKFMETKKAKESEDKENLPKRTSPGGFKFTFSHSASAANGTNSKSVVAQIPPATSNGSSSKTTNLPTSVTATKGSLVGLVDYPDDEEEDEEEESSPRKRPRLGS
UniProt O75170: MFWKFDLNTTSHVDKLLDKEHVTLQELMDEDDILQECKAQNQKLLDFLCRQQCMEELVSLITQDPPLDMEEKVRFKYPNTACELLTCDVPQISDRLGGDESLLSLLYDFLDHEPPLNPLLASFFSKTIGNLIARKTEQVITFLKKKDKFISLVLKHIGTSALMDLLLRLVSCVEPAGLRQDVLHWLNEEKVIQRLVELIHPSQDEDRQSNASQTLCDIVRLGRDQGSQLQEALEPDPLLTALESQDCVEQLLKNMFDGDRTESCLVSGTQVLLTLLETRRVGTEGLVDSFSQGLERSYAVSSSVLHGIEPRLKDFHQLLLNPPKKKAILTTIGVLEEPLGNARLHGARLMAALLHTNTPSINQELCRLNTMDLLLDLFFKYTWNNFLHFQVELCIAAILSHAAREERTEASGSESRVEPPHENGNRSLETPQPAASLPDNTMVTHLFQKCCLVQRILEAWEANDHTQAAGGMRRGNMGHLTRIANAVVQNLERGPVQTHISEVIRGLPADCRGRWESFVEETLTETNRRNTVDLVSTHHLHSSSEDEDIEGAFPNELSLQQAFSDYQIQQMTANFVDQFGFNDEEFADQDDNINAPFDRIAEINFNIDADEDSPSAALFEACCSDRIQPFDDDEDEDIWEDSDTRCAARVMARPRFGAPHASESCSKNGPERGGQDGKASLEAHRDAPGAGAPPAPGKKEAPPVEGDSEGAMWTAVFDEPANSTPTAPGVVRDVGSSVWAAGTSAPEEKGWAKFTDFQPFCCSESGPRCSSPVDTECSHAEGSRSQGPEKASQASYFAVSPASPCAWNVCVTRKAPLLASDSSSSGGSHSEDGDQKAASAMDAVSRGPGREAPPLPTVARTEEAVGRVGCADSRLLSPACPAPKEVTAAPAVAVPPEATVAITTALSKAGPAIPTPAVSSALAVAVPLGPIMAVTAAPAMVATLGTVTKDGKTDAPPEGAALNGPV
UniProt O43172: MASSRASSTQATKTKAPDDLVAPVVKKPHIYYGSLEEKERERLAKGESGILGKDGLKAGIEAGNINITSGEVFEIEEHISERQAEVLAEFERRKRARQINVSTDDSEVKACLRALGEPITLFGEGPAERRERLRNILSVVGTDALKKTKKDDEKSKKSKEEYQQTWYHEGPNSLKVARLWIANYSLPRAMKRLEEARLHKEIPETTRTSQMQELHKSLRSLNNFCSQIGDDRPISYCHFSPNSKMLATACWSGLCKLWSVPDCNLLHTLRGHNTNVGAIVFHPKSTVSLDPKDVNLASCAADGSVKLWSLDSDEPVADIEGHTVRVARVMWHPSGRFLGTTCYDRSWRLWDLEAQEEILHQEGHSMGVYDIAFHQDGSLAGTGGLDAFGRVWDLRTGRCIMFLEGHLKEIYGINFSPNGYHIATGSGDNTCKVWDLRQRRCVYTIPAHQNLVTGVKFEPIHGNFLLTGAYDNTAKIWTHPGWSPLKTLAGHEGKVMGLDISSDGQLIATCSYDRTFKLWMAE
UniProt Q13362, whole entry, looked up: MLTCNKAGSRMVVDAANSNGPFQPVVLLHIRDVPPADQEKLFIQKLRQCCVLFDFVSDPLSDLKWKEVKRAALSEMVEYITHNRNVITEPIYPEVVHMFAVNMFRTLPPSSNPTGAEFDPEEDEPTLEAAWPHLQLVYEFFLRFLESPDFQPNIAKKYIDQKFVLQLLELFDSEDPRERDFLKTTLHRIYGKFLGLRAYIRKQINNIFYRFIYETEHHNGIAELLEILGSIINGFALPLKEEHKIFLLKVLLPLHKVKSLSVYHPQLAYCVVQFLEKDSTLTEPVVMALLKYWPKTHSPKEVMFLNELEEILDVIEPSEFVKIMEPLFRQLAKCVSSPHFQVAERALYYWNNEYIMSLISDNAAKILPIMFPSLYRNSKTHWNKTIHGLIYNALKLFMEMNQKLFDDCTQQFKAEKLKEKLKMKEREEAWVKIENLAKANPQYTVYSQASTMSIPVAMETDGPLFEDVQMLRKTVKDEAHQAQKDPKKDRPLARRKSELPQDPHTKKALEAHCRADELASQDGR
UniProt P36873, whole entry, looked up: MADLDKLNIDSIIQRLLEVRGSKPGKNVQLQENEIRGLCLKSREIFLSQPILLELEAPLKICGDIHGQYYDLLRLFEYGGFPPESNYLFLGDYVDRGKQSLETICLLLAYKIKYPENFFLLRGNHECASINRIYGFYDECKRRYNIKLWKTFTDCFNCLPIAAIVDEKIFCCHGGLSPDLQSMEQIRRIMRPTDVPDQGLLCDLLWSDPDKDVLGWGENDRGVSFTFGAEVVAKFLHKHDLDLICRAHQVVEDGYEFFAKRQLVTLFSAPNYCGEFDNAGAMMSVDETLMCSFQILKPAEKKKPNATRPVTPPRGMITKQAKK
UniProt Q15435: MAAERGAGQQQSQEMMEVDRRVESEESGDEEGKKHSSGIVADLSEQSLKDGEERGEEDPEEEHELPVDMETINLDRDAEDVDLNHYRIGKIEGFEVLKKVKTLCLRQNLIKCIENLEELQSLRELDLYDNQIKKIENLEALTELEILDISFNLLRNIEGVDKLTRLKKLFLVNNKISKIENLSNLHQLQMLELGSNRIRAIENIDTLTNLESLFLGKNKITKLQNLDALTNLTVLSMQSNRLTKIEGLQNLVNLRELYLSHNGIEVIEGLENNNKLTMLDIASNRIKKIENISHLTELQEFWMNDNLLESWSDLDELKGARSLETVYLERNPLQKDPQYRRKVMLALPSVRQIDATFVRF
UniProt P50897: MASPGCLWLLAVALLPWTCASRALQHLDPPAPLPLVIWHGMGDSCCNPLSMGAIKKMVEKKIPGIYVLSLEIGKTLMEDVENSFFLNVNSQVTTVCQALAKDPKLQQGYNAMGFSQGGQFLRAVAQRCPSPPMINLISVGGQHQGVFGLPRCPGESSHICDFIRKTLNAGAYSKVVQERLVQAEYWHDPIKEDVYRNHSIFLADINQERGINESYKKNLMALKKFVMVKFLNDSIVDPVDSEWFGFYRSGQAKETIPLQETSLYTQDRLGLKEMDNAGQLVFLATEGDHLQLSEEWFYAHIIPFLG

Columns and labels:
Assay in all cases: log2 fold change, soluble protein after heating vs DMSO (PISA); higher = thermal stabilisation; K562 lysate, 10 uM; active = over 0.2 and 3.5 SD of the protein, either way, in both replicates (recomputed)
[1] = compound: CN1CC[C@H](c2c(O)cc(O)c3c(=O)cc(-c4ccccc4Cl)oc23)[C@H](O)C1 [alvocidib]
Outline: (§1)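 Dounce homogenisation of K562 pellets in PBS pH 7.4 with 1 mM MgCl2 produced a crude extract, used at 1 mg/mL protein. Exposure to 10 μM compound lasted 30 min, and aliquots were then heated for 3 min across 48°C-58°C, pooled and brought to 0.5% NP-40 at 4°C. The supernatant after 21,000xg for 90 min was quantified by TMTpro 16plex LC-MS/MS with channel sums equalised. Duplicate values are given as log-two fold change in thermal stability relative to solvent controls.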

[2] = compound: CN1CCc2c(c3ccccc3n2Cc2ccc(C(=O)NO)cc2)C1 [Tubastatin A]
Outline: as §1

[3] = compound: CNC(=O)C1=CC=CC=C1NC2=NC(=NC=C2Cl)NC3=C(C=C(C=C3)N4CCOCC4)OC
Outline: as §1

[4] = compound: CNC(=O)c1ccc(Nc2ncc(C(F)(F)F)c(NCc3nccnc3N(C)S(C)(=O)=O)n2)cc1 [defactinib]
Outline: as §1

[5] = compound: CNc1nc(-c2ccc3c(N)n[nH]c3c2)cc(N2C[C@@H](C(=O)NC3CCCCC3)CC[C@H]2C)n1
Outline: as §1

[6] = compound: COC(=O)N[C@@H](C)CNc1nccc(-c2cn(C(C)C)nc2-c2cc(Cl)cc(NS(C)(=O)=O)c2F)n1 [encorafenib]
Outline: as §1

[7] = compound: COC(=O)[C@H](CCSC)NC(=O)C1=C(C=C(C=C1)NC[C@H](CS)N)C2=CC=CC=C2
Outline: as §1

[8] = compound: COc1cc(Nc2ncc3c(n2)-c2ccc(Cl)cc2C(c2c(F)cccc2OC)=NC3)ccc1C(=O)O [alisertib]
Outline: as §1

[9] = compound: COc1cc2nc(-c3cc(F)ccc3O)nc(N[C@@H]3CNC[C@H]3C(C)(C)O)c2cc1OC
Outline: as §1

[10] = compound: COc1cc2ncnc(Nc3ccc(F)c(Cl)c3)c2cc1OCCCN1CCOCC1 [gefitinib]
Outline: as §1

[11] = compound: CS(=O)(=O)CCNCc1ccc(-c2ccc3ncnc(Nc4ccc(OCc5cccc(F)c5)c(Cl)c4)c3c2)o1 [lapatinib]
Outline: as §1

[12] = compound: CS(=O)(=O)N1CCN(Cc2cc3nc(-c4cccc5[nH]ncc45)nc(N4CCOCC4)c3s2)CC1 [pictilisib]
Outline: as §1

[13] = compound: C[C@@H](Oc1cc(-c2cnn(C3CCNCC3)c2)cnc1N)c1c(Cl)ccc(F)c1Cl [crizotinib]
Outline: as §1

[14] = compound: C[C@H](C1=CC=C(C=C1)C(=O)NC2=C3C=CNC3=NC=C2)N
Outline: as §1

[15] = compound: C[C@H](Nc1ncnc2nc[nH]c12)c1cc2cccc(Cl)c2c(=O)n1-c1ccccc1 [duvelisib]
Outline: as §1

[16] = compound: Cc1cc(Nc2cc(CN3CCOCC3)c3nc(C)c(Cc4ccc(Cl)cc4F)n3n2)n[nH]1 [gandotinib]
Outline: as §1

[17] = compound: Cc1cc(Nc2cc(N3CCN(C)CC3)nc(Sc3ccc(NC(=O)C4CC4)cc3)n2)n[nH]1 [tozasertib]
Outline: as §1

[18] = compound: Cc1ccc(-n2nc(C(C)(C)C)cc2NC(=O)Nc2ccc(OCCN3CCOCC3)c3ccccc23)cc1 [doramapimod]
Outline: as §1

[19] = compound: Cc1ccc(NC(=O)c2ccc(CN3CC[C@H](N(C)C)C3)c(C(F)(F)F)c2)cc1Nc1nccc(-c2cncnc2)n1 [bafetinib]
Outline: as §1

[20] = compound: Cc1cccc(CC(=O)N2CCc3c2ccc(-c2cn(C)c4ncnc(N)c24)c3F)n1
Outline: as §1

Measured: log2 fold change

PPM1A isoform 3 (UniProt P35813)
inactive: [1] -0.003 | [2] -0.06 | [3] -0.006 | [4] -0.106 | [5] 0.026 | [6] -0.003 | [7] 0.065 | [8] 0.007 | [9] 0.021 | [10] 0.053 | [11] 0.032 | [12] 0.065 | [13] -0.022 | [14] 0.012 | [15] -0.025 | [16] -0.086 | [17] 0.034 | [18] 0.023 | [19] -0.097 | [20] 0.002

PPP4R3B (UniProt Q5MIZ7)
inactive: [1] -0.03 | [2] -0.072 | [3] 0 | [4] -0.001 | [5] 0 | [6] -0.001 | [7] 0.078 | [8] -0.013 | [9] 0.001 | [10] 0.006 | [11] -0.016 | [12] -0.019 | [13] -0.062 | [14] -0.023 | [15] -0.015 | [16] 0.016 | [17] -0.06 | [18] -0.019 | [19] 0.008 | [20] 0.072

PPP6R2 isoform 5 (UniProt O75170)
inactive: [1] -0.048 | [2] -0.032 | [3] 0.049 | [4] 0.013 | [5] -0.031 | [6] 0.025 | [7] -0.001 | [8] 0 | [9] 0.018 | [10] -0.025 | [11] 0.003 | [12] -0.02 | [13] -0.028 | [14] -0.029 | [15] 0 | [16] 0.005 | [17] -0.041 | [18] -0.037 | [19] -0.039 | [20] 0.021

PRPF4 (UniProt O43172)
inactive: [1] 0.078 | [2] 0.015 | [3] 0.027 | [4] -0.028 | [5] 0.049 | [6] -0.018 | [7] 0.008 | [8] 0.008 | [9] -0.006 | [10] -0.032 | [11] 0.014 | [12] 0.005 | [13] -0.013 | [14] 0.184 | [15] -0.046 | [16] -0.041 | [17] -0.005 | [18] 0.029 | [19] -0.017 | [20] -0.114

PPP2R5C isoform 5 (UniProt Q13362)
inactive: [1] 0.016 | [2] -0.018 | [3] 0.012 | [4] 0.029 | [5] -0.048 | [6] 0.029 | [7] -0.039 | [8] 0.002 | [9] -0.014 | [10] 0.004 | [11] -0.03 | [12] 0.01 | [13] 0.004 | [14] 0.069 | [15] 0.02 | [16] -0.08 | [17] 0.054 | [18] -0.005 | [19] -0.001 | [20] -0.036

2 consecutive records already listed:
PPP4R3B (UniProt Q5MIZ7)
inactive: [1] -0.03 | [2] -0.072 | [3] 0 | [4] -0.001 | [5] 0 | [6] -0.001 | [7] 0.078 | [8] -0.013 | [9] 0.001 | [10] 0.006 | [11] -0.016 | [12] -0.019 | [13] -0.062 | [14] -0.023 | [15] -0.015 | [16] 0.016 | [17] -0.06 | [18] -0.019 | [19] 0.008 | [20] 0.072

PPP6R2 isoform 5 (UniProt O75170)
inactive: [1] -0.048 | [2] -0.032 | [3] 0.049 | [4] 0.013 | [5] -0.031 | [6] 0.025 | [7] -0.001 | [8] 0 | [9] 0.018 | [10] -0.025 | [11] 0.003 | [12] -0.02 | [13] -0.028 | [14] -0.029 | [15] 0 | [16] 0.005 | [17] -0.041 | [18] -0.037 | [19] -0.039 | [20] 0.021

Later entries

PPP1CC isoform 2 (UniProt P36873)
inactive: [1] -0.021 | [2] -0.015 | [3] 0.023 | [4] -0.049 | [5] 0.042 | [6] -0.007 | [7] 0.014 | [8] 0.038 | [9] -0.008 | [10] -0.016 | [11] 0.005 | [12] -0.007 | [13] 0.017 | [14] 0.079 | [15] -0.01 | [16] -0.072 | [17] -0.003 | [18] 0.028 | [19] 0.061 | [20] 0.002

PPP1R7 (UniProt Q15435)
inactive: [1] 0.028 | [2] 0.015 | [3] -0.034 | [4] -0.008 | [5] -0.092 | [6] 0 | [7] 0.007 | [8] 0.008 | [9] 0 | [10] 0.031 | [11] -0.005 | [12] 0.036 | [13] 0.002 | [14] -0.007 | [15] 0.021 | [16] -0.022 | [17] 0.075 | [18] 0.02 | [19] -0.021 | [20] -0.02

PPT1 (UniProt P50897)
inactive: [1] 0.01 | [2] -0.026 | [3] -0.049 | [4] 0.022 | [5] -0.01 | [6] 0.003 | [7] 0.145 | [8] -0.01 | [9] 0.011 | [10] 0.014 | [11] -0.01 | [12] -0.028 | [13] -0.013 | [14] 0.08 | [15] -0.038 | [16] -0.064 | [17] 0.094 | [18] -0.014 | [19] -0.019 | [20] -0.008
